According to article PMC6508495, “Members of the abscisic acid co‐receptor PP2C protein family mediate salicylic acid–abscisic acid crosstalk” (Plant Direct, 2017):
These are yes or no findings as the source states them, for the method shown. Some binding calls cover weakened binding; strength is not graded here.

Amino acid sequences for entries named in this document (tags omitted).
UniProt Q8VZS8: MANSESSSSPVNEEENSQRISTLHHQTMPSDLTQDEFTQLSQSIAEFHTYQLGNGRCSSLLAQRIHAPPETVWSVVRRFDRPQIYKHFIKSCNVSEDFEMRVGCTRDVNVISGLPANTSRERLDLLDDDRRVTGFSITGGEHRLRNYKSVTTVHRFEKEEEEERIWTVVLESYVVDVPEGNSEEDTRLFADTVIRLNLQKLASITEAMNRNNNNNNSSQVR
UniProt O49686: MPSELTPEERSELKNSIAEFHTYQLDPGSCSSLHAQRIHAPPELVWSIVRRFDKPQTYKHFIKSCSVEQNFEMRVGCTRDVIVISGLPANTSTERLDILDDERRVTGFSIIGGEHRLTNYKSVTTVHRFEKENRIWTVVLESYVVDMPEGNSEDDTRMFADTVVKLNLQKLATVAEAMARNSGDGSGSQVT
UniProt P49597: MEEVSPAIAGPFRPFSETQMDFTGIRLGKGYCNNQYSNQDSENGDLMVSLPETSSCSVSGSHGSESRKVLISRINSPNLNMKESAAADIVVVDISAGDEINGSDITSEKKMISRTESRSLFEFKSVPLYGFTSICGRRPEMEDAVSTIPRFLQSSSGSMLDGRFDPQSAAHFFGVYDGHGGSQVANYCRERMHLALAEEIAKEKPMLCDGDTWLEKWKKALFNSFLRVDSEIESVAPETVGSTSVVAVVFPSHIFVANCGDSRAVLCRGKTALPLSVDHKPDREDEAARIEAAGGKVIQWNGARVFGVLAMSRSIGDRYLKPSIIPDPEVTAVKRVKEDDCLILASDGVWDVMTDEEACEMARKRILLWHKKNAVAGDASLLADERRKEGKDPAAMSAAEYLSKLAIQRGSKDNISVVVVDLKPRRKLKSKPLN
UniProt O04719: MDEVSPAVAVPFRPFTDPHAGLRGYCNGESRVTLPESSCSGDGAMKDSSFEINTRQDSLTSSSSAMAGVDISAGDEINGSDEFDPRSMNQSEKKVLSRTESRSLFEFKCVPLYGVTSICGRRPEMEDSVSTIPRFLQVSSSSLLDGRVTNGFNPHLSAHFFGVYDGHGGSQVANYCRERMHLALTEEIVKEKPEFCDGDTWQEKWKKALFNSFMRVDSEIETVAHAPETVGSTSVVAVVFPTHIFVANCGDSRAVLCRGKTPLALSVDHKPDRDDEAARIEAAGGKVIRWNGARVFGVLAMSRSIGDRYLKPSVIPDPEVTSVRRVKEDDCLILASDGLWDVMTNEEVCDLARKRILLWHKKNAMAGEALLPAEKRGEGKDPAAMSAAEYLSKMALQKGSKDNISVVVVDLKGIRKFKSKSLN

T1: PYL2, ABA receptor of the PYR/PYL/RCAR family (UniProt O80992)
T1 sequence: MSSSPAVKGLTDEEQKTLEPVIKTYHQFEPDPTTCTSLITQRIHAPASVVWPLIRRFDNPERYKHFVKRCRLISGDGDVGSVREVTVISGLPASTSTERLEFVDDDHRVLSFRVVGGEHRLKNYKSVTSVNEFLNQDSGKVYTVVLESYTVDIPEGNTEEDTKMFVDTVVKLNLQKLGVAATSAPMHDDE


What was measured:
Assay in all cases: SPR; Biacore 3000; His6-SUMO-tagged PYL1, PYL2 or PYR1 amine-coupled to a CM5 chip; PP2Cs flowed over in HBS-EP buffer at 30 μl/min in the absence or presence of ABA, SA or ABA+SA; signal of the mock-coupled flow cell subtracted; both purified
[1] = target: T1, PYL2, ABA receptor of the PYR/PYL/RCAR family
[2] = target: PYL1, ABA receptor of the PYR/PYL/RCAR family (UniProt Q8VZS8)
[3] = target: PYR1 (pyrabactin resistance 1), ABA receptor of the PYR/PYL/RCAR family (UniProt O49686)

Row | binding [1] | binding [2] | binding [3] | Molecule
1 | binds | binds | binds | ABA‐insensitive 1 (ABI1; At4g26080) (from UniProt P49597 1-434) (enzyme)
2 |  | binds | binds | ABA‐insensitive 2 (ABI2; At5g57050) (from UniProt O04719 1-423) (enzyme)
3 | binds | binds | binds | PP2C‐D4 (At3g55050), type 2C protein phosphatase of clade D (enzyme, UniProt Q94CL8 1-384) MVSTTFRRIVSPCWRPFGIGEDSSPGSDDTNGRLDGLLWYKDSGNHITGEFSMAVVQANNLLEDHSQLESGPISLHESGPEATFVGVYDGHGGPEAARFVNDRLFYNIKRYTSEQRGMSPDVITRGFVATEEEFLGLVQEQWKTKPQIASVGACCLVGIVCNGLLYVANAGDSRVVLGKVANPFKELKAVQLSTEHNASIESVREELRLLHPDDPNIVVLKHKVWRVKGIIQVSRSIGDAYLKRAEFNQEPLLPKFRVPERFEKPIMRAEPTITVHKIHPEDQFLIFASDGLWEHLSNQEAVDIVNSCPRNGVARKLVKAALQEAAKKREMRYSDLEKIERGIRRHFHDDITVIVVFLHATNFATRTPISVKGGGLLSAHNPVL
